According to US20190092819A1 (published 2019):
No constants are given. Whether binding was seen depends on the method and setting. Some binding calls cover weakened binding; strength is not graded here.

Amino acid sequences for entries named in this document (tags omitted). Residues count along the entry.
UniProt Q14126, residues 50-609: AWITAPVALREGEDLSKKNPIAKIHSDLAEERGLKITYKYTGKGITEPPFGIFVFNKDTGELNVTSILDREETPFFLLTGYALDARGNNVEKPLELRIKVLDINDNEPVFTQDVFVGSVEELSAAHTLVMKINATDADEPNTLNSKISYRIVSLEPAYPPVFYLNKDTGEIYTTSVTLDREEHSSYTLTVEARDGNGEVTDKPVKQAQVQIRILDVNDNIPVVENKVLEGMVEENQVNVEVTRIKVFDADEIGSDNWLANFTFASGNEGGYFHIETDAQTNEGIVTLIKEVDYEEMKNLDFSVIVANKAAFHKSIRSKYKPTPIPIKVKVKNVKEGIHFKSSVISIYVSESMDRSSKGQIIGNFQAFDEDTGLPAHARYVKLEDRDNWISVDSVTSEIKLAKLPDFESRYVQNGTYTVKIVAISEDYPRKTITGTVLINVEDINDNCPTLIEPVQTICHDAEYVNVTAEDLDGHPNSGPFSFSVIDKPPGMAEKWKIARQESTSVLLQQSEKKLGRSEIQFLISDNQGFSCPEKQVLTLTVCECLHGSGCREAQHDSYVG

Target: Recombinant human DSG2 protein (desmoglein 2), soluble (human) (UniProt Q14126)
Test: Western blot of dimeric knob probed with soluble DSG2

B1: dimeric Ad3 fiber knob mutant L292A (ligand)
chain: MKVSALKEKVSALKEKVSALKEKVSALKEKVSALKEGSGGGSGGGSGGGSNSIALKNNTLWTGPKPEANCIIEYGKQNPDSKLTLILVKNGGIVNGYVTLMGASDYVNTLFKNKNVSINVELYFDATGHILPDSSSLKTDLELKYKQTADFSARGFMPSTTAYPFVLPNAGTHNENYIFGQCYYKASDGALFPLEVTVMLNKRLPDSRTSYVMTFLWSANAGLAPETTQATLITSPFTFSYIREDD
With B1 the binding was “binds”.
